According to PubChem BioAssay AID1487 (National Center for Advancing Translational Sciences (NCATS), 2009):
The other results are listed elsewhere or left out. These are further read-outs of the screen, such as a control signal, another cell line or another target. No call is given for them. The list favours compounds with an active or inconclusive main result. Words in brackets tell the shape of the fitted curve; partial curves, single points and poor fits give uncertain potencies.

Test: qHTS Assay for Modulators of Lamin A Splicing
Conditions: HeLa LMNA splicing GFP/RFP minigene ratio, 48 h
Outline: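 Read-out is the ratio of GFP to DsRed2 object intensity, acquired by 488 nm laser-scanning cytometry on HeLa lamin A-EGFP minigene reporter cells. Compound incubation 48 hrs at 37 °C in Opti-MEM with 2% FBS; DMSO 0.5% final.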

[1] = measured here: RFP viability control channel
[2] = measured here: GFP splicing reporter channel

| SMILES | AC50 [1] | AC50 [2] |
| --- | --- | --- |
| S=C(NCCN1CCOCC1)Nc1ccccc1Cl | 0.251 µM [rising, full curve, poor fit] |  |
| O=C(OC1CCCCC1)c1ccc(NC(=O)C2CCCCC2)cc1 | 31.6 µM [rising, single point] | 15.8 µM [rising, single point] |
| Cc1ccc(CCSc2ccc(C(C)C)cc2)cn1 | 35.5 µM [rising, single point] |  |
| Cc1ccc(C(=O)Nc2ccc3nc(SCC(=O)N4CCc5ccccc54)sc3c2)cc1 |  | 0.158 µM [falling, full curve, poor fit] |
| CN(Cc1ccco1)c1ncncc1-c1ccoc1 | 11.2 µM [falling, partial curve] |  |
| Cc1ccc(C(=O)Nc2nc(C(C)(C)C)cs2)s1 | 31.6 µM [rising, single point] |  |
| Cc1ccc(C(=O)N/N=C\C=C\c2ccccc2[N+](=O)[O-])cn1 | 0.794 µM [falling, full curve, poor fit] | 0.0501 µM [falling, full curve, poor fit] |
| Cc1cccc(C(=O)NC(=S)Nc2ccc(S(=O)(=O)N(C)c3ccccc3)cc2)c1 | 17.8 µM [rising, single point] |  |
| Cc1oc2c(c1C(=O)N1CCOCC1)C(=O)c1ccccc1C2=O | 6.31 µM [falling, full curve] | 7.08 µM [falling, full curve] |
| O=C(Nc1nc2c(s1)CCCC2)c1ccc2ncsc2c1 | 22.4 µM [rising, partial curve] | 12.6 µM [rising, partial curve] |
| CCCNS(=O)(=O)c1ccc(CCC(=O)Nc2ccc3c(c2)OCCO3)cc1 | 35.5 µM [rising, single point] |  |
| Cc1c(N/N=C(\C#N)C(=O)c2ccccc2)c(=O)n(-c2ccccc2)n1C | 5.62 µM [rising, full curve] |  |
| CCCCSc1nnc([C@@H](NC(=O)OC(C)(C)C)C(C)C)o1 | 31.6 µM [rising, single point] |  |
| O=C(Nc1cnn(Cc2ccc(Cl)cc2Cl)c1)c1cc(-c2cccs2)on1 | 35.5 µM [falling, single point] |  |
| N#C/C(=C1/SCC(c2ccccc2Cl)S1)n1ccnc1 (configuration not stated) | 10 µM [rising, partial curve] | 10 µM [rising, partial curve, poor fit] |
| c1ccc(C(c2nnnn2Cc2ccco2)N2CCN(c3nc4ccccc4s3)CC2)cc1 (configuration not stated) | 35.5 µM [rising, single point] |  |
| CC(=O)N1CCN(c2ccc(Nc3ncnc4c3oc3ccccc34)cc2)CC1 | 11.2 µM [rising, partial curve] | 12.6 µM [rising, partial curve] |
| O=C(CCOc1ccccc1)Nc1cccc(S(=O)(=O)Nc2ccccc2Cl)c1 | 22.4 µM [rising, single point] | 5.01 µM [rising, partial curve, poor fit] |
| CCN(CC)S(=O)(=O)c1ccc(OC)c(NC(=O)c2cccs2)c1 | 35.5 µM [falling, partial curve] |  |
| CNc1ccccc(-c2ccc3ccccc3n2)c1=O | 22.4 µM [rising, single point] | 35.5 µM [rising, single point] |
| Cc1c(NC(=O)CSCc2ccc(Br)cc2)c(=O)n(-c2ccccc2)n1C | 0.01 µM [falling, full curve, poor fit] | 0.01 µM [falling, full curve] |
| Oc1cccc(-c2nc3ccccc3s2)c1 | 15.8 µM [rising, single point] |  |
| Brc1ccc(Cn2c(-c3ccc(Br)o3)nc3ccccc32)o1 |  | 35.5 µM [rising, single point] |
| C=CCn1c(SCC(=O)N2CCN(c3ccc(F)cc3)CC2)nnc1-c1cccs1 | 7.94 µM [rising, partial curve, poor fit] |  |
| CCNc1ncc2nc(-c3ccc(OC)cc3)c(=O)n(Cc3ccc(F)cc3)c2n1 | 12.6 µM [falling, partial curve] | 12.6 µM [falling, partial curve] |
| CCOc1ccc(-c2cc(C(=O)NCC3CCCO3)c3ccccc3n2)cc1 (configuration not stated) | 35.5 µM [rising, single point] | 35.5 µM [rising, single point] |
| CCCCNC(=O)c1ccc(Cn2c(=S)[nH]c3c([nH]c4ccc(OC)cc43)c2=O)cc1 | 35.5 µM [falling, single point] | 35.5 µM [falling, single point] |

| SMILES | AC50 [1] | AC50 [2] |
| --- | --- | --- |
| O=C(COc1ccc(F)cc1)Nc1ccc2nc(SCC(=O)N3CCCC3)sc2c1 | 3.55 µM [falling, partial curve] | 1 µM [falling, full curve, poor fit] |
| CCCn1c(=O)c2[nH]c(C3CCCC3)nc2n(CCC)c1=O | 35.5 µM [falling, partial curve, poor fit] | 35.5 µM [falling, single point] |
| CCc1nc2ccccc2c(C(=O)OCC(=O)Nc2ccc(S(=O)(=O)N3CCOCC3)cc2)c1C | 20 µM [rising, single point] | 10 µM [rising, partial curve, poor fit] |
| COc1ccc(C2C(C#N)=C(N)Oc3n[nH]c(C)c32)cc1Cn1nnc2ccccc21 (configuration not stated) |  | 20 µM [rising, single point] |
| O=[N+]([O-])c1cccnc1N1CCC(c2cc(-c3ccc(Cl)cc3Cl)n[nH]2)CC1 | 28.2 µM [rising, single point] |  |
| COc1ccc(C(=O)c2ccc(N(C)C)cc2)c(OC)c1 | 5.62 µM [falling, partial curve] | 7.08 µM [falling, partial curve] |
| CCOC(=O)c1ccccc1NS(=O)(=O)c1ccc(OC)cc1 | 10 µM [rising, partial curve, poor fit] |  |
| O=C(CCNNC(=O)c1ccncc1)NCc1ccccc1 | 7.08 µM [falling, single point] | 12.6 µM [falling, single point] |
| O=C(COc1ccc(Cl)cc1)NCc1nnc(SCC(=O)NCc2ccc3c(c2)OCO3)o1 | 22.4 µM [rising, single point] | 15.8 µM [rising, single point] |
| Clc1cccc(-n2ncc3c(NC4CCCCC4)ncnc32)c1 | 11.2 µM [rising, partial curve, poor fit] |  |
| Cc1cc(C)c(C)c(OCCCOc2cccc3cccnc23)c1 | 15.8 µM [rising, partial curve, poor fit] |  |
| Cc1cccc(N2CCN(C(=O)c3ccc4nc(-c5ccco5)c(-c5ccco5)nc4c3)CC2C)c1 (configuration not stated) | 35.5 µM [falling, single point] | 35.5 µM [falling, single point] |
| CC(C)(C)OC(=O)N1CCC(c2c(C(=O)NCCN3CCC(Cc4ccccc4)CC3)cnn2-c2cccc(Cl)c2)CC1 | 17.8 µM [falling, single point] | 14.1 µM [falling, single point] |
| Cc1c(C(=O)Nc2ccc3c(c2)OCCO3)sc2nc(-c3ccccc3)cn12 | 3.55 µM [rising, single point] | 35.5 µM [falling, single point] |
| CN(C)CCCN(Cc1ccccc1)C(=S)Nc1ccc(OC(F)F)cc1 | 0.316 µM [rising, full curve, poor fit] |  |
| CCOCCCNC(=O)C(Cc1ccccc1)NS(=O)(=O)c1cccc2nsnc12 (configuration not stated) | 0.0224 µM [falling, full curve, poor fit] |  |
| Nc1cc(Cl)nc(N/N=C/c2c(O)ccc3ccccc23)n1 | 17.8 µM [rising, single point] | 11.2 µM [rising, single point] |
| CC(C)(C)c1ccc(S(=O)(=O)N2CCC(c3nc4ccc(Cl)cc4[nH]3)CC2)cc1 | 10 µM [rising, partial curve, poor fit] |  |
| Clc1ccccc1N1CCN(c2ncnc3c2c(-c2ccccc2)cn3-c2ccccc2)CC1 | 5.62 µM [rising, single point] |  |
| CCCC(=O)NC(=S)Nc1ccccc1N1CCOCC1 | 0.251 µM [rising, partial curve, poor fit] |  |
| O=C(N/N=C/c1cn(-c2ccccc2)nc1-c1cc2ccccc2o1)c1ccccc1Br | 35.5 µM [rising, single point] |  |
| COc1ccc(-n2c(SCC(=O)Nc3nc(C)cs3)nnc2-c2ccoc2C)cc1 | 35.5 µM [rising, single point] |  |
| O=C(Nc1ccc(N2CCCC2)c(S(=O)(=O)Nc2cccc(C(F)(F)F)c2)c1)c1cccs1 | 15.8 µM [rising, partial curve] | 12.6 µM [rising, single point] |
| O=C(Nc1ccc2c(c1)CCCN2C(=O)c1cccs1)c1cccc(C(F)(F)F)c1 | 3.98 µM [rising, full curve, poor fit] |  |
| Fc1ccc2[nH]c3c(N4CCN(Cc5ccc6c(c5)OCO6)CC4)ncnc3c2c1 | 5.62 µM [rising, partial curve] | 7.08 µM [rising, partial curve] |
| CCCOP(=O)(OCCC)c1c([N+](=O)[O-])cc(C(F)(F)F)cc1[N+](=O)[O-] | 25.1 µM [falling, partial curve, poor fit] |  |

One compound at a time (already shown). Order of values: AC50 [1]	AC50 [2]
`O=C(CCOc1ccccc1)Nc1cccc(S(=O)(=O)Nc2ccccc2Cl)c1` is listed as 22.4 µM [rising, single point]	5.01 µM [rising, partial curve, poor fit]
`CCCn1c(=O)c2[nH]c(C3CCCC3)nc2n(CCC)c1=O` is listed as 35.5 µM [falling, partial curve, poor fit]	35.5 µM [falling, single point]
